Here are results for 21 sequences from the supplement of paper PMC9233669.

The test system of data set [1] is biotinyl-Ile-oxazolone. Briefly: self-aminoacylation, catalytic enhancement (BIO) (fold over background); higher = more active; k-Seq, kA / k0A0; sequences stand for … in GGGAAUGGAUCCACAUCUACGAAUUC…UUCACUGCAGACUUGACGAAGCUG
In a few lines: (§1)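 Mutagenized RNA pools with a 21-nt variable region (0.43 μM) reacted with each biotinyl-aminoacyl-oxazolone at 2–1250 μM. Reactions ran in 50 μL HEPES/NaCl/KCl/MgCl2/CaCl2 buffer with 5% acetonitrile, pH 6.9–7.0, for 90 minutes at room temperature. Streptavidin-captured RNA was quantified by triplicate qPCR and Illumina sequencing, and per-sequence fraction reacted was fit to a pseudo-first-order model with 1000 bootstraps. Catalytic enhancement is median kA divided by the uncatalyzed rate, the low-activity peak of a bimodal Gaussian fit.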

The subject of data set [2] is biotinyl-Met-oxazolone. The experiment in a line: self-aminoacylation, catalytic enhancement (BMO) (fold over background); higher = more active; k-Seq, kA / k0A0; sequences stand for … in GGGAAUGGAUCCACAUCUACGAAUUC…UUCACUGCAGACUUGACGAAGCUG
The method, boiled down: as §1

The test system of data set [3] is biotinyl-Val-oxazolone. The experiment in a line: self-aminoacylation, catalytic enhancement (BVO) (fold over background); higher = more active; k-Seq, kA / k0A0; sequences stand for … in GGGAAUGGAUCCACAUCUACGAAUUC…UUCACUGCAGACUUGACGAAGCUG
The method, boiled down: as §1

The test system of data set [4] is biotinyl-Leu-oxazolone. Briefly: self-aminoacylation, catalytic enhancement (BLO) (fold over background); higher = more active; k-Seq, kA / k0A0; sequences stand for … in GGGAAUGGAUCCACAUCUACGAAUUC…UUCACUGCAGACUUGACGAAGCUG
The method, boiled down:
as §1

The test system of data set [5] is biotinyl-Trp-oxazolone. Briefly: self-aminoacylation, catalytic enhancement (BWO) (fold over background); higher = more active; k-Seq, kA / k0A0; sequences stand for … in GGGAAUGGAUCCACAUCUACGAAUUC…UUCACUGCAGACUUGACGAAGCUG
The method, boiled down:
as §1

Data set [6] concerns biotinyl-Phe-oxazolone. The experiment in a line: self-aminoacylation, catalytic enhancement (BFO) (fold over background); higher = more active; k-Seq, kA / k0A0; sequences stand for … in GGGAAUGGAUCCACAUCUACGAAUUC…UUCACUGCAGACUUGACGAAGCUG
The method, boiled down: as §1

Variants at the floor of the assay are shown more often than the library holds them.

As to “AAGUUUGCUAAUAGCCUCAAG [Fam3.1 aminoacylation ribozyme variant]”, the self-aminoacylation was determined as 0.648 in data set [1]; 0.666 in data set [2]; 0.646 in data set [3]; 0.419 in data set [4]; 0.926 in data set [5]; 1.22 in data set [6].

With “AAGUUUUCUAAUAGUCGCAAC [Fam3.1 aminoacylation ribozyme variant]”, the self-aminoacylation came to 1.46 in data set [1]; 1.2 in data set [2]; 1.27 in data set [3]; 1.26 in data set [4]; 1.89 in data set [5]; 2.43 in data set [6].

As to “CCGCACUUCAAGCAAUCCGUC [Fam1B.1 aminoacylation ribozyme variant]”, the self-aminoacylation in data set [1] amounted to 1.23; in data set [2], 0.971; in data set [3], 1.25; in data set [4], 1.22; in data set [5], 1.12; in data set [6], 1.17.

Consider “CUACUCCAUACAAUCGGUCUG [Fam1A.1 aminoacylation ribozyme variant]”, for which the self-aminoacylation is 0.833 in data set [1]; 0.719 in data set [2]; 0.751 in data set [3]; 0.628 in data set [4]; 0.549 in data set [5]; 0.859 in data set [6].

As for “AAGUUUCCUAAUAGUCGGAAG [Fam3.1 aminoacylation ribozyme variant]”, the self-aminoacylation was 1.44 in data set [1]; 1.14 in data set [2]; 0.99 in data set [3]; 1.32 in data set [4]; 1.68 in data set [5]; 1.51 in data set [6].

For “CCACACCUCAAGCAAUAGGUC [Fam1B.1 aminoacylation ribozyme variant]”, the self-aminoacylation stood at 0.799 in data set [1]; 0.562 in data set [2]; 0.872 in data set [3]; 0.668 in data set [4]; 0.675 in data set [5]; 1.02 in data set [6].

In the case of “CUACACAUCAAGCAAUCGGUC [Fam1B.1 aminoacylation ribozyme variant]”, the self-aminoacylation was found to be 0.799 in data set [1]; 0.673 in data set [2]; 0.681 in data set [3]; 0.682 in data set [4]; 0.79 in data set [5]; 1.21 in data set [6].

As to “AUUACCCUGGUCACCGAUUGA [Fam2.1 aminoacylation ribozyme variant]”, the self-aminoacylation in data set [1] was 0.935; in data set [2] it was 0.698; in data set [3] it was 0.943; in data set [4], 0.865; in data set [5] it was 0.621; in data set [6], 0.74.

In the case of “CCACAAUUCAAGCAAUCGGAC [Fam1B.1 aminoacylation ribozyme variant]”, the self-aminoacylation stood at 1.15 in data set [1]; 0.783 in data set [2]; 0.798 in data set [3]; 0.884 in data set [4]; 0.711 in data set [5]; 0.942 in data set [6].

“AUUACCCUGGUCAUCGUGUCA [Fam2.1 aminoacylation ribozyme variant]”: the self-aminoacylation turned out to be 0.67 in data set [1]; 0.742 in data set [2]; 0.835 in data set [3]; 0.607 in data set [4]; 1.04 in data set [5]; 0.482 in data set [6].

For “AAGUUUGCUAAUAGUCGCCAA [Fam3.1 aminoacylation ribozyme variant]”, the self-aminoacylation in data set [1] was 1.39; in data set [2], 1.02; in data set [3], 1.25; in data set [4], 0.958; in data set [5] it was 1.2; in data set [6] it was 1.77.

Regarding “CCACACUGCUAGCAAUCGGUC [Fam1B.1 aminoacylation ribozyme variant]”, the self-aminoacylation in data set [1] was determined as 0.953; in data set [2], 0.937; in data set [3] it was 1.03; in data set [4], 0.642; in data set [5] it was 0.558; in data set [6] it was 1.38.

“CCAUACUCCAAGCAAUCGGUC [Fam1B.1 aminoacylation ribozyme variant]”: the self-aminoacylation turned out to be 1.01 in data set [1]; 0.771 in data set [2]; 1.01 in data set [3]; 0.801 in data set [4]; 1.01 in data set [5]; 1.2 in data set [6].

Consider “ACGUUUGCCAAUAGUCGCAAG [Fam3.1 aminoacylation ribozyme variant]”, for which the self-aminoacylation in data set [1] was 1.73; in data set [2] it was 2.04; in data set [3], 1.67; in data set [4], 2.16; in data set [5], 1.65; in data set [6], 6.32.

With “CCACACUUCAAGCAGUCGGAC [Fam1B.1 aminoacylation ribozyme variant]”, the self-aminoacylation in data set [1] amounted to 1.02; in data set [2] it was 1.08; in data set [3] it was 1.2; in data set [4] it was 0.964; in data set [5], 0.712; in data set [6], 0.46.

As for “AUCACCCUGGUCCUCGAGUGA [Fam2.1 aminoacylation ribozyme variant]”, the self-aminoacylation in data set [1] turned out to be 4.01; in data set [2], 6.62; in data set [3] it was 4.54; in data set [4], 8.29; in data set [5], 7.28; in data set [6] it was 51.6.

For the sequence “UUACUUCAAACAAUCGGUCCG [Fam1A.1 aminoacylation ribozyme variant]”, the self-aminoacylation is 0.82 in data set [1]; 0.942 in data set [2]; 0.891 in data set [3]; 0.937 in data set [4]; 1.64 in data set [5]; 1.69 in data set [6].

Take “AGUACCCUGGUCAUCGAGUCA [Fam2.1 aminoacylation ribozyme variant]”: the self-aminoacylation in data set [1] was 0.862; in data set [2], 0.856; in data set [3], 0.869; in data set [4] it was 0.769; in data set [5], 0.393; in data set [6] it was 0.555.

With “CCAUACUUCACGCAAUCGGUC [Fam1B.1 aminoacylation ribozyme variant]”, the self-aminoacylation turned out to be 1.07 in data set [1]; 0.872 in data set [2]; 1.34 in data set [3]; 1.07 in data set [4]; 0.912 in data set [5]; 0.83 in data set [6].

In the case of “AUUCACCUAGGUCAUCGGGUC [Fam2.2 aminoacylation ribozyme variant]”, the self-aminoacylation in data set [1] is 1.38; in data set [2], 1.69; in data set [3] it was 1.6; in data set [4], 1.9; in data set [5] it was 1.5; in data set [6] it was 1.93.

Take “AAGUUUGCUAAUAGUCACAUG [Fam3.1 aminoacylation ribozyme variant]”: the self-aminoacylation in data set [1] was 1.14; in data set [2], 1.06; in data set [3] it was 1.36; in data set [4] it was 0.963; in data set [5], 1.1; in data set [6], 1.48.
